Reference: PubChem BioAssay AID1259308 (NCATS, 2017)

- Aim: 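Knock-downs that increase output of a recombinant reporter protein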 (primary screen)
- Cells: human HEK293 embryonic kidney cells stably expressing firefly luciferase (HEK-CMV-Luc2-Hygro)
- Reagent: single siRNA against human genes, 0.8 pmol siRNA per well
- Timing: 72 h
- Read-out: 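Luciferase light (ONE-Glo) measured on one replicate plate set and viability (CellTiter-Glo) on the other, scaled to a negative control siRNA, with robust z-scores and luciferase per cell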
- Scale: total luciferase, z-score and total luciferase, % of control: higher = more reporter protein produced; luciferase per cell, z-score: higher = more reporter output per viable cell; viable cells, % of control: higher = more viable cells
- Rule for the call: 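Active when the median/MAD z-score for overall luciferase is greater than 3; a gene was taken forward for validation with new siRNAs if at least two of its three siRNAs passed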
- Meaning of the calls: active = raised luciferase; inactive = no rise
Here is one part, drawn at random, of about 59,000 deposited reagents. About 1,510 of all reagents (2.6%) count as active. 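Calls use total luciferase alone and ignore viability, so some active siRNAs may act by altering cell number.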 A number with no mark means an inactive call. Reagents against one gene are numbered here.

no.	Target gene	reagent	total luciferase, z-score	total luciferase, % of control	luciferase per cell, z-score	viable cells, % of control
1	FCN3	1	1.08	103	2.15	65.7
2	FCN3	2	0.555	92.9	0.0837	102
3	FCN3	3	0.207	86	-0.0841	98.3
4	TMEM158	1	0.592	93.7	0.425	93.6
5	TMEM158	2	-0.84	65.2	-0.197	76.7
6	TMEM158	3	0.233	86.5	-0.0888	99
7	RAI2	1	1.46	111	2.14	70.5
8	RAI2	2	0.544	92.7	0.277	96.3
9	RAI2	3	-0.265	76.6	0.346	78.2
10	PCDHA10	1	-1.82	45.8	-0.00499	51.2
11	PCDHA10	2	-0.0543	80.8	0.0898	88.2
12	PCDHA10	3	0.213	86.1	0.138	92.8
13	PYGB	1	0.713	96.1	0.393	96.8
14	PYGB	2	-0.00832	81.7	0.54	79.2
15	PYGB	3	0.475	91.3	0.621	86.7
16	TP53RK	1	0.475	91.3	-0.065	104
17	TP53RK	2	0.00896	82.1	-0.364	101
18	TP53RK	3	-0.0325	81.2	-0.457	102
19	NUF2	1	0.111	84.1	0.887	74.4
20	NUF2	2	-1.98	42.4	-1.95	79.2
21	NUF2	3	0.572	93.3	0.274	97
22	UCK1	1	0.191	85.7	1.22	69.4
23	UCK1	2	1.66	115	1.45	87.7
24	UCK1	3	1.21	106	2.22	66
25	OR5A1	1	4.01 (active)	162	2.94	83.3
26	OR5A1	2	0.621	94.2	0.735	86.8
27	OR5A1	3	2.27	127	2.17	80.2
28	NUPR1	1	-0.307	75.8	-0.244	90.3
29	NUPR1	2	-0.066	80.6	-0.378	99.5
30	NUPR1	3	-0.898	64	-1.21	98.4
31	CEACAM3	1	-0.391	74.1	-0.739	101
32	CEACAM3	2	-0.346	75	0.23	78.9
33	CEACAM3	3	0.281	87.5	0.165	93.6
34	PRM2	1	-0.132	79.3	0.0642	87.1
35	PRM2	2	-1.4	54.1	-1.2	82.9
36	PRM2	3	0.226	86.4	-0.325	105
37	SYNE4	1	0.952	101	0.714	93.4
38	SYNE4	2	1.14	105	0.795	94.8
39	SYNE4	3	1.06	103	1.44	78.7
40	PEAR1	1	0.915	100	2.16	63.3
41	PEAR1	2	1.16	105	0.539	102
42	PEAR1	3	-0.502	71.9	-1.03	105
43	PSME3	1	-1.06	60.9	-1.16	92.4
44	PSME3	2	-1.27	56.6	-0.67	75.4
45	PSME3	3	-0.15	78.9	0.543	76.4
46	MAGEA11	1	0.0341	82.6	0.0355	91.4
47	MAGEA11	2	0.98	101	0.765	92.6
48	MAGEA11	3	1.11	104	0.811	93.9
49	HACL1	1	1.05	103	1.2	83.6
50	HACL1	2	-0.569	70.6	-0.732	95.6
51	HACL1	3	1.37	109	1.08	91.7
52	FAM227B	1	-0.788	66.2	-1.34	105
53	FAM227B	2	-0.563	70.7	-1.03	103
54	FAM227B	3	0.114	84.1	-0.833	117
55	DZIP1	1	-0.726	67.4	-0.634	89.1
56	DZIP1	2	-0.668	68.6	0.079	75.1
57	DZIP1	3	0.0194	82.3	0.277	85.5

7 entries from above, set out differently.
PSME3 #3: total luciferase, z-score = -0.15; total luciferase, % of control = 78.9; luciferase per cell, z-score = 0.543; viable cells, % of control = 76.4
MAGEA11 #1: total luciferase, z-score = 0.0341; total luciferase, % of control = 82.6; luciferase per cell, z-score = 0.0355; viable cells, % of control = 91.4
MAGEA11 #2: total luciferase, z-score = 0.98; total luciferase, % of control = 101; luciferase per cell, z-score = 0.765; viable cells, % of control = 92.6
MAGEA11 #3: total luciferase, z-score = 1.11; total luciferase, % of control = 104; luciferase per cell, z-score = 0.811; viable cells, % of control = 93.9
HACL1 #1: total luciferase, z-score = 1.05; total luciferase, % of control = 103; luciferase per cell, z-score = 1.2; viable cells, % of control = 83.6
HACL1 #2: total luciferase, z-score = -0.569; total luciferase, % of control = 70.6; luciferase per cell, z-score = -0.732; viable cells, % of control = 95.6
HACL1 #3: total luciferase, z-score = 1.37; total luciferase, % of control = 109; luciferase per cell, z-score = 1.08; viable cells, % of control = 91.7
